From US5462927A, “Peptides aiding nerve regeneration” (The Administrators of the Tulane Educational Fund, priority 1992, dated 1995)

System: sectioned sciatic nerve; common extensor muscle of the finger
Assay: Muscle weight after sciatic nerve section
Assay type: in vivo, rat

C[C@@H](N)C(=O)N[C@@H](CCC(N)=O)C(=O)N[C@@H](Cc1ccc(O)cc1)C(=O)N[C@@H](Cc1ccccc1)C(=O)N[C@@H](CCCNC(=N)N)C(=O)N[C@@H](Cc1c[nH]c2ccccc12)C(=O)NCC(N)=O [BIM-22015, D--Ala--Gln--Tyr--Phe--Arg--Trp--Gly--NH2] (H-[dA]QYFRWG-NH2)
Animal Weight 35d. p.o. (Group 2: Tissue col 10.0 μg/0.5 ml (topical)): 321.0 g
Animal Weight 35d. p.o. (Group 3: Tissue col 1.1 μg/10.5 ml (topical)): 280.5 g
Animal Weight 35d. p.o. (Group 4: s.c. 5 μg 1 kg/day (18 days)): 322.5 g
association of the increase in muscle weight with edema or lipid infiltration (s.c. administration): not associated with edema or lipid infiltration

Square brackets hold non-standard residues; d marks the D form. Peptide text beside a SMILES is read from it.
